Laboratory results from publication PMC11628327.
These are yes or no findings as the source states them, for the method shown. In cells and extracts the contact can be indirect. A result given as binding can be weak or reduced; the word gives no strength.

Chains of the proteins cited; added tags and fusions are not shown. Lines headed by an entry give the natural chain unless they say otherwise; changes in a name come on top.
UniProt Q9R1E0: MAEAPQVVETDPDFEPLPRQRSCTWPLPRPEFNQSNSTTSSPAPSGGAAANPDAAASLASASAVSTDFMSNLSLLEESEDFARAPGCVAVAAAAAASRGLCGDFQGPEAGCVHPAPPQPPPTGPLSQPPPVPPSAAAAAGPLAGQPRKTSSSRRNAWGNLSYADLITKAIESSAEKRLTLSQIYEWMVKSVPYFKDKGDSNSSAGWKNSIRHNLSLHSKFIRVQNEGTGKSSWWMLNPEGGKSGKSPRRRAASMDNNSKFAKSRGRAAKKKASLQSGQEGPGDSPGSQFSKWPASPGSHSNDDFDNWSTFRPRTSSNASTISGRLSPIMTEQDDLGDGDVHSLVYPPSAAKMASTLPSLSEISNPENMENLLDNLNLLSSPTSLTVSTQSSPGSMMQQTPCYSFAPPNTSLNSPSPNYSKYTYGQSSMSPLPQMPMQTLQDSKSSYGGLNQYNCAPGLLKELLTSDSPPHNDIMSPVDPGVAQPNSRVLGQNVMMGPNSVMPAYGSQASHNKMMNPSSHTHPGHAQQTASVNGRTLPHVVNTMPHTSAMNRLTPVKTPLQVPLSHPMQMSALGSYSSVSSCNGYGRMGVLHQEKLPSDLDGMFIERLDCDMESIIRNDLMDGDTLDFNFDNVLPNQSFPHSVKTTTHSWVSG
UniProt P31749: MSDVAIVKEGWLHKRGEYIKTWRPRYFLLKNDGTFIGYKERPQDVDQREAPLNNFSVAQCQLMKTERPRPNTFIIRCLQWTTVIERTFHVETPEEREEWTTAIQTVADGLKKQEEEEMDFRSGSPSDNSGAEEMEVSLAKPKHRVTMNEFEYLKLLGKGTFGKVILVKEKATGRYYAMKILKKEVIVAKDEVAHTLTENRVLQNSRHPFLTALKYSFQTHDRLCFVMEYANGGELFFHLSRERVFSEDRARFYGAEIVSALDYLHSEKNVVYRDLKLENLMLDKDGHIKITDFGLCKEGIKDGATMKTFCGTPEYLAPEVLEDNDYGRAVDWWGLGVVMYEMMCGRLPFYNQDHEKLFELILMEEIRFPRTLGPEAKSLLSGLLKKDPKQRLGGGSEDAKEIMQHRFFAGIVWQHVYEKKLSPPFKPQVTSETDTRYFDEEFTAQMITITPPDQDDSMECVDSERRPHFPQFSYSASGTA
UniProt P40763: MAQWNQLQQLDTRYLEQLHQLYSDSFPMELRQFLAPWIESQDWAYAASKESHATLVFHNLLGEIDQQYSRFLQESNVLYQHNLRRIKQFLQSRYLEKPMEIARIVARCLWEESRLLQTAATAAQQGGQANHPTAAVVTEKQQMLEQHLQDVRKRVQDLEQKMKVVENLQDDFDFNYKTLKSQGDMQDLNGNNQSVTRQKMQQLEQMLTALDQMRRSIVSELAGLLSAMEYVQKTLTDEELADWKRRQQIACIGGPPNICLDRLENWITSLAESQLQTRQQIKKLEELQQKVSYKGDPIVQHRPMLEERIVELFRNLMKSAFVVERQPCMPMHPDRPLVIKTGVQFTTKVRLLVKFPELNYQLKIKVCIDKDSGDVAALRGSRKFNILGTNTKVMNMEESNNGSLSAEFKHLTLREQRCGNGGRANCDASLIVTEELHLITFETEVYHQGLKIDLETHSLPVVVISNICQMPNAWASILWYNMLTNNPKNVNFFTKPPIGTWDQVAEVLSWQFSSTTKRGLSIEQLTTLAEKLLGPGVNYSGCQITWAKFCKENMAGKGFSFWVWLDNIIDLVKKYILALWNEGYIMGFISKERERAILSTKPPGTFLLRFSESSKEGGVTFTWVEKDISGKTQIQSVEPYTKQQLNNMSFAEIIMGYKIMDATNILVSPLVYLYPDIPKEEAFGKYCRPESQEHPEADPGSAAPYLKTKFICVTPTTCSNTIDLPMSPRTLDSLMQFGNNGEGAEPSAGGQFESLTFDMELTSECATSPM
UniProt P42227: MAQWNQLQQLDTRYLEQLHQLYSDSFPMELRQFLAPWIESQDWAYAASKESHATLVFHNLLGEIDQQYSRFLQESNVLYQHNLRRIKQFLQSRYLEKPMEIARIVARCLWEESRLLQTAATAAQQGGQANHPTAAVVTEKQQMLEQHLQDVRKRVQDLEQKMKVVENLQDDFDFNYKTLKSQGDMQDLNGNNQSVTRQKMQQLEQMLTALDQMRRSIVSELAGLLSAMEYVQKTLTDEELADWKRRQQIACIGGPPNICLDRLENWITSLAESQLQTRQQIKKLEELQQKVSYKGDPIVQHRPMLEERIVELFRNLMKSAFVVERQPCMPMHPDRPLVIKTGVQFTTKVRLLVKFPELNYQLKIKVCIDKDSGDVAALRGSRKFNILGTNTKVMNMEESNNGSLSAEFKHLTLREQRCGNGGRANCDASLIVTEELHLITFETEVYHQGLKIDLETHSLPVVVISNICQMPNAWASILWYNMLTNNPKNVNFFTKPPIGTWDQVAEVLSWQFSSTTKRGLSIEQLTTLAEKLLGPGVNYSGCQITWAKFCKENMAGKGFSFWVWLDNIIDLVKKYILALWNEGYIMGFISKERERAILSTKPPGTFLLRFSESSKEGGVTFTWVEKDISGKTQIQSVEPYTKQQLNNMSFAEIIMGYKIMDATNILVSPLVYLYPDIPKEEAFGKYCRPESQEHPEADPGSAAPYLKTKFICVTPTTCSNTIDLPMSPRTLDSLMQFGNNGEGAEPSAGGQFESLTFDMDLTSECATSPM
UniProt Q19S50: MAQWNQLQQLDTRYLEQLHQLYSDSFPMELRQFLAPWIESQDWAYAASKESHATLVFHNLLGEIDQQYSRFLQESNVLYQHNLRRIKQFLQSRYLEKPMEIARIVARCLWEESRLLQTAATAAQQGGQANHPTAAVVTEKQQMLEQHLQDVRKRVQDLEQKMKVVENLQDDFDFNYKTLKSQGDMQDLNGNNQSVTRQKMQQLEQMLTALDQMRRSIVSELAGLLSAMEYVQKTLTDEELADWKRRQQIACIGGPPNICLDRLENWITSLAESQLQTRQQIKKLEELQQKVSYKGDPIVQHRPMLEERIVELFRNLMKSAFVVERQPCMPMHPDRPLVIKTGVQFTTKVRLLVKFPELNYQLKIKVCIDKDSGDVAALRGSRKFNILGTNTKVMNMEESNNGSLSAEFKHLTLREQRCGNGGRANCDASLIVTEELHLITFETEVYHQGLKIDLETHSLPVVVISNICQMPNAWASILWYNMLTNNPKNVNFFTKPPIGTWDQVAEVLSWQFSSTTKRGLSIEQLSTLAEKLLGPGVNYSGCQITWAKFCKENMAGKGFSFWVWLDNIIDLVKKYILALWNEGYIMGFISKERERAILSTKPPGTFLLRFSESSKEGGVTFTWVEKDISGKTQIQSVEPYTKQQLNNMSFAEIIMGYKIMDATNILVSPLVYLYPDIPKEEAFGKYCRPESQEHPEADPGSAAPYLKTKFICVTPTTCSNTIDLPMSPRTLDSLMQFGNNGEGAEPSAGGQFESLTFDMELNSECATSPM

What was measured:
[1] = biological target: FLAG-tagged FOXO1 mutant lacking the nuclear localization signal (FOXO1-△NLS) (UniProt Q9R1E0); test: co-IP; 293T cells, endogenous FOXO1 silenced, FLAG-tagged FOXO1 vectors, hypoxia; cytoplasmic and nuclear fractions; IP, immunoblot
[2] = biological target: FLAG-tagged FOXO1 mutant lacking the nuclear localization signal (FOXO1-△NLS) (UniProt Q9R1E0); test: co-IP; NIH/3T3 cells, endogenous FOXO1 silenced, FLAG-tagged FOXO1 vectors, hypoxia; cytoplasmic and nuclear fractions; IP, immunoblot
[3] = biological target: FLAG-tagged FOXO1 mutant lacking the nuclear localization signal (FOXO1-△NLS) (UniProt Q9R1E0); test: co-IP; porcine GCs, FOXO1-siRNA 12 h, then FLAG-tagged FOXO1 vectors, hypoxia (1% O2) 12 h; cytoplasmic and nuclear fractions; IP with anti-FLAG-tag, immunoblot

Substance | binding [1] | further results
AKT1 (endogenous, 293T cells) (from UniProt P31749 1-480) | binds | 
STAT3 (endogenous, 293T cells) (from UniProt P40763 1-770) | binds | 
STAT3 (endogenous, NIH/3T3 cells) (from UniProt P42227 1-770) |  | binding [2]: binds
STAT3 (endogenous, porcine granulosa cells) (from UniProt Q19S50 1-770) |  | binding [3]: binds
